# Assay results as given in the supplement of paper PMC3334620.
# Over roughly 33,000 sequences, “E-score (-0.5 to 0.5)” has its median near -0.015; the highest 2% begin near 0.3. The list shows a part of the results.
# Biological target: T1, Abf1 (UniProt P14164)
# T1 sequence: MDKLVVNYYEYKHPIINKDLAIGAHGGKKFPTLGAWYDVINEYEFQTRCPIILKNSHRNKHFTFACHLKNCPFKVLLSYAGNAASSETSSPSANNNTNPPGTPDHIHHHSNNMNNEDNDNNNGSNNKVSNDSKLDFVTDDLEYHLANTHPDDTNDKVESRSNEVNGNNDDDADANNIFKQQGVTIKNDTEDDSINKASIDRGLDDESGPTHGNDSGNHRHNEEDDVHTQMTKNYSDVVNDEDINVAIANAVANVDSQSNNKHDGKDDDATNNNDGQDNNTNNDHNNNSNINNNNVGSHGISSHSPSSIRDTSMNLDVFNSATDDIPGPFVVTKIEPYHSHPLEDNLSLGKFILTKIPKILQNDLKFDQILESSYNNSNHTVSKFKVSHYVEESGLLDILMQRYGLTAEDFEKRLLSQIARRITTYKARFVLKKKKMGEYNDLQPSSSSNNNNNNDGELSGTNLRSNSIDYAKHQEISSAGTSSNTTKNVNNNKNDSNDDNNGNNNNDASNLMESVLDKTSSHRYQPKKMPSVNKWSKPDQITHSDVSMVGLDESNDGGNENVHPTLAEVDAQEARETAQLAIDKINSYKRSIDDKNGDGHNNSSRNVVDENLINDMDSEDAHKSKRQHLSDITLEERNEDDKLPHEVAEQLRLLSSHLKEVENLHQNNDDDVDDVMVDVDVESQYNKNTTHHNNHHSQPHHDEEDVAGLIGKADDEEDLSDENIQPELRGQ
# Experiment: PBM E-score (8-mer binding enrichment) (E-score (-0.5 to 0.5)); higher = stronger / more preferred TF binding
# Conditions: protein concentration: 200 nM; construct: GST-full length
# Protocol: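 Universal 'all 10-mer' protein binding microarrays (Agilent AMADID 015681) probed with GST-tagged S. cerevisiae TFs (full-length or DBD) made by in vitro transcription/translation (PURExpress), about 100-200 nM. Bound TF was detected with fluorescent anti-GST. Each ungapped 8-mer (which stands for itself and its reverse complement) is scored by the PBM enrichment score (E-score), a modified Wilcoxon-Mann-Whitney statistic from -0.5 to +0.5, computed with the Universal PBM Analysis Suite. Scale: above 0.35 generally sequence-specific binding.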
row,Sequence,PBM E-score
1,TGGTTACA,0.11
2,ATACCTTC,-0.00465
3,CCGGCTCA,-0.0605
4,ATGCCGAG,-0.0873
5,ACGCCGAC,-0.171
6,AAATATCC,0.0659
7,CGGGTGGA,-0.0431
8,TCGGTTAA,0.0499
9,CTGCGAGC,0.0153
10,ATGGCTTC,0.0298
11,ACTGAGAC,-0.04
12,ATTACGCC,0.016
13,CTCGATTC,-0.104
14,GCAAGTAA,-0.115
15,AACCGAAT,0.0714
16,ATCTGTCA,0.212
17,AAATTGGT,0.199
18,ATCTTCAG,0.0575
19,GTGTGGCA,-0.082
20,ATTTCCGG,0.0492
21,CTGCCGGA,0.0521
22,ACGTGGGC,-0.00691

row,Sequence,PBM E-score
1,GCAGGCTA,-0.181
2,CACCTTGG,-0.144
3,CTACCTAC,0.165
4,CACAGGTA,-0.0274
5,AGAGGAGA,-0.144
6,CAACGAAC,0.14
7,AGAAATTA,0.115
8,AACTACTT,-0.144
9,CAAGCGGG,-0.176
10,GGGGTCAC,-0.0616
11,GTGGAACA,0.164
12,CTGCCGGC,-0.257
13,TACCCACA,-0.134
14,GAAACAGA,-0.0148
15,CAATAACC,0.0104
16,ATGCCGGA,-0.0377
17,GGCCGGTA,-0.0146
18,TAAGGGTA,-0.196
19,TCTCCCCA,-0.172
20,ACCCTTCA,-0.0788
21,CCTTATAG,-0.00997
22,CCATATCG,0.146

row,Sequence,PBM E-score
1,ACTAAGCC,0.0159
2,TAGATTGA,0.0666
3,ACGCTGGC,-0.0435
4,TTATGCAA,-0.00382
5,ATTGTACA,0.0354
6,AAGTACGC,-0.0592
7,CTTGAGGC,-0.108
8,AACAGTAC,0.02
9,GTGACAGA,0.359
10,ACTGAACG,0.036
11,CAAAGGCC,-0.194
12,ACGGGCCA,-0.0891
13,CGCCGGCA,0.0385
14,CCGACCCA,-0.00172
15,GACTGTGC,0.0177
16,CCCCTGCG,-0.252
17,GAAACGAC,0.153
18,AAAAAAAC,0.0743
19,ACCCCGTA,0.0548
20,ACTTGAGG,-0.0874
21,GCTGCACA,-0.173
22,ACCTAACA,0.0963

row,Sequence,PBM E-score
1,CAAGGACG,0.0458
2,ATGTCTGG,-0.0676
3,CCTGTCGC,-0.133
4,AGAATTCT,0.238
5,AGGGAATG,-0.0277
6,AGACTTTA,0.0584
7,AGCACAGA,-0.03
8,GAAATCTA,-0.0869
9,AGACAGTG,-0.0919
10,GAATAGCA,-0.229
11,CCTTTTTC,-0.166
12,GTAGTTTA,0.0884
13,CCGCACAC,-0.0593
14,CAAATCAA,0.0796
15,CAAGTATG,0.114
16,TCGAGCGA,0.0549
17,ACACAAAG,-0.11
18,ACAGTACA,0.015
19,AATTGTCC,-0.0973
20,AGATCGGA,-0.123

# Some of the entries above in a different format:
row	Sequence	PBM E-score
15	CAAGTATG	0.114
16	TCGAGCGA	0.0549
17	ACACAAAG	-0.11
18	ACAGTACA	0.015
19	AATTGTCC	-0.0973
20	AGATCGGA	-0.123
